Reference: paper PMC8027845
No constants are given. Whether binding was seen depends on the method and setting. In cells and extracts the contact can be indirect. Some results given as binding are weak or reduced against the parent protein; the word gives no strength.

Molecular target: T1, T-LAK-originated protein kinase (TOPK) (human (endogenous in H460)) (UniProt Q96KB5)
T1 sequence: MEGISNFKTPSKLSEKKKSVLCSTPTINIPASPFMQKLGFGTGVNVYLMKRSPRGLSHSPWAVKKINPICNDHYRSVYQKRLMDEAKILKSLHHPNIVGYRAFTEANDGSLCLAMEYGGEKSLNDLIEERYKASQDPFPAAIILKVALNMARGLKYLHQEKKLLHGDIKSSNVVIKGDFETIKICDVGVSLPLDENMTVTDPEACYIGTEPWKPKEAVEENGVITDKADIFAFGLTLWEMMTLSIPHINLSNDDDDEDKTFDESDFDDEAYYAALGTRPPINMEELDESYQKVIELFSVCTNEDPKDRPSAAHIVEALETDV
Assay: co-IP; TOPK precipitated from precleared H460 whole-cell lysates (RIPA buffer, protease and phosphatase inhibitors) with Protein A/G beads preloaded with 2 ug antibody, 5-6 h at 4 °C; western blot for Cdc25C and CHK1; cells untreated or treated with OTS964 and/or 4 Gy irradiation, overnight hydroxyurea (1 mM) or nocodazole (100 ng/ml); mouse IgG as negative control

B1: Cdc25C (protein, UniProt P30307 1-473)
chain: MSTELFSSTREEGSSGSGPSFRSNQRKMLNLLLERDTSFTVCPDVPRTPVGKFLGDSANLSILSGGTPKRCLDLSNLSSGEITATQLTTSADLDETGHLDSSGLQEVHLAGMNHDQHLMKCSPAQLLCSTPNGLDRGHRKRDAMCSSSANKENDNGNLVDSEMKYLGSPITTVPKLDKNPNLGEDQAEEISDELMEFSLKDQEAKVSRSGLYRSPSMPENLNRPRLKQVEKFKDNTIPDKVKKKYFSGQGKLRKGLCLKKTVSLCDITITQMLEEDSNQGHLIGDFSKVCALPTVSGKHQDLKYVNPETVAALLSGKFQGLIEKFYVIDCRYPYEYLGGHIQGALNLYSQEELFNFFLKKPIVPLDTQKRIIIVFHCEFSSERGPRMCRCLREEDRSLNQYPALYYPELYILKGGYRDFFPEYMELCEPQSYCPMHHQDHKTELLRCRSQSKVQEGERQLREQIALLVKDMSP
With B1 the binding was “binds”.
